Measurements published in US20260001792A1, “METHOD FOR PRODUCING SLIME-SUPPRESSING AUXILIARY AGENT FOR REVERSE OSMOSIS MEMBRANE, SLIME-SUPPRESSING AUXILIARY AGENT FOR REVERSE OSMOSIS MEMBRANE, AND WATER TREATMENT METHOD” (ORGANO CORPORATION, priority 2022, published 2026).

Test: Effects on membrane: flux and EC rejection rate before/after contact with agent
Details: ESPA2, pH 7, after contact at CT value 30,000

## OCl [NaClO, sodium hypochlorite]
  EC rejection rate after contact: 88.5%
